No constants are given. Whether binding was seen depends on the method and setting. For part of these data: Where a sequence is shown, tags or fusion partners need not be part of it.
Tests used:
[1] = biological target: T1, CDPME kinase (IspE) from Escherichia coli (Escherichia coli K12) (UniProt P62615); assay: native gel or EMSA; native gel shift of mixtures of two or three proteins, 2.5 μg/μl each, 10% glycerol, 25 mM Tris/HCl pH 8.0, 100 mM NaCl, 12 μl; 1 mM MgCl2, 1 mM MEP, 1 mM CTP if IspD present; 30°C 30 min; 8% native PAGE, 1x TBE, 4°C; both purified
T1 sequence: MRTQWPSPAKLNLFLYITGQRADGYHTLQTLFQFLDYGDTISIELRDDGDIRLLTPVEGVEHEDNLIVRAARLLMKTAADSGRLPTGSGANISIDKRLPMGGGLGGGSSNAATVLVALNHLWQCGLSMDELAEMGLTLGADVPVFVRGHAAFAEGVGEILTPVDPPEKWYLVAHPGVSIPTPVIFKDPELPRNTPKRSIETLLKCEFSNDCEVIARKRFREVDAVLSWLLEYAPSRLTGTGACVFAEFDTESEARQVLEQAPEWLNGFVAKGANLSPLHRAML

[2] = biological target: T1, CDPME kinase (IspE) from Escherichia coli (Escherichia coli K12); assay: SEC; Superdex200 10/300 GL; single E. coli proteins and triple mixture (0.2 mg each, 250 μl); 100 mM NaCl, 25 mM Tris/HCl pH 8.0; 1 mM MgCl2, 1 mM MEP, 1 mM CTP if IspD present; 30°C 30 min; both purified
[3] = biological target: T2, 2-C-Methyl-D-erythritol 2,4-cyclodiphosphate synthase (IspF) from Escherichia coli (Escherichia coli K12) (UniProt P62617); assay: native gel or EMSA; native gel shift of mixtures of two or three proteins, 2.5 μg/μl each, 10% glycerol, 25 mM Tris/HCl pH 8.0, 100 mM NaCl, 12 μl; 1 mM MgCl2, 1 mM MEP, 1 mM CTP if IspD present; 30°C 30 min; 8% native PAGE, 1x TBE, 4°C; both purified
T2 sequence: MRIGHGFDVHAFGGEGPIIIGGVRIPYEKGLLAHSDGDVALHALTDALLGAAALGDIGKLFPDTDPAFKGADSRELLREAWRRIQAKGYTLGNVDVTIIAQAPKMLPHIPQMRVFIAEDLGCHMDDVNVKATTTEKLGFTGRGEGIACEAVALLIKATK

[4] = biological target: T2, 2-C-Methyl-D-erythritol 2,4-cyclodiphosphate synthase (IspF) from Escherichia coli (Escherichia coli K12); assay: SEC; Superdex200 10/300 GL; single E. coli proteins and triple mixture (0.2 mg each, 250 μl); 100 mM NaCl, 25 mM Tris/HCl pH 8.0; 1 mM MgCl2, 1 mM MEP, 1 mM CTP if IspD present; 30°C 30 min; both purified
[5] = biological target: T3, GST fusion of CDPME kinase (IspE) from Bacillus subtilis (Bacillus subtilis 168) (UniProt P37550); assay: SEC; Superdex75 10/300 GL; single B. subtilis proteins and triple mixture (0.2 mg each, 250 μl); 100 mM NaCl, 25 mM Tris/HCl pH 8.0; 1 mM MgCl2, 1 mM MEP, 1 mM CTP if IspD present; 30°C 30 min; both purified
T3 sequence: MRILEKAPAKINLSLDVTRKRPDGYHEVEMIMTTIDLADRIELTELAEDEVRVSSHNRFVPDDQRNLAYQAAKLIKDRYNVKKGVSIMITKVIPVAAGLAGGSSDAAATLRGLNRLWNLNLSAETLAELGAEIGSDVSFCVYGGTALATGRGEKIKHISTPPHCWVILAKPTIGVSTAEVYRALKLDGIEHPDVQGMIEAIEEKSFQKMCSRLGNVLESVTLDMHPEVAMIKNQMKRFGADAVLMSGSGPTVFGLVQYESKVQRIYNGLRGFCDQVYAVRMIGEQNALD

Row | Binder | binding [1] | binding [2] | binding [3] | binding [4] | binding [5]
1 | 2-C-Methyl-D-erythritol-4-phosphate cytidyltransferase (IspD) from Escherichia coli (enzyme, UniProt Q46893 1-236) MATTHLDVCAVVPAAGFGRRMQTECPKQYLSIGNQTILEHSVHALLAHPRVKRVVIAISPGDSRFAQLPLANHPQITVVDGGDERADSVLAGLKAAGDAQWVLVHDAARPCLHQDDLARLLALSETSRTGGILAAPVRDTMKRAEPGKNAIAHTVDRNGLWHALTPQFFPRELLHDCLTRALNEGATITDEASALEYCGFHPQLVEGRADNIKVTRPEDLALAEFYLTRTIHQENT | no binding (tested: 2.5 μg/μl each) | no binding (tested: 0.2 mg each in 250 μl) | – | – | –
2 | CDPME kinase (IspE) from Escherichia coli (enzyme, UniProt P62615 1-283) MRTQWPSPAKLNLFLYITGQRADGYHTLQTLFQFLDYGDTISIELRDDGDIRLLTPVEGVEHEDNLIVRAARLLMKTAADSGRLPTGSGANISIDKRLPMGGGLGGGSSNAATVLVALNHLWQCGLSMDELAEMGLTLGADVPVFVRGHAAFAEGVGEILTPVDPPEKWYLVAHPGVSIPTPVIFKDPELPRNTPKRSIETLLKCEFSNDCEVIARKRFREVDAVLSWLLEYAPSRLTGTGACVFAEFDTESEARQVLEQAPEWLNGFVAKGANLSPLHRAML | – | no binding | no binding (tested: 2.5 μg/μl each) | no binding (tested: 0.2 mg each in 250 μl) | –
3 | GST fusion of CDPME kinase (IspE) from Bacillus subtilis (enzyme, UniProt P37550 1-289) MRILEKAPAKINLSLDVTRKRPDGYHEVEMIMTTIDLADRIELTELAEDEVRVSSHNRFVPDDQRNLAYQAAKLIKDRYNVKKGVSIMITKVIPVAAGLAGGSSDAAATLRGLNRLWNLNLSAETLAELGAEIGSDVSFCVYGGTALATGRGEKIKHISTPPHCWVILAKPTIGVSTAEVYRALKLDGIEHPDVQGMIEAIEEKSFQKMCSRLGNVLESVTLDMHPEVAMIKNQMKRFGADAVLMSGSGPTVFGLVQYESKVQRIYNGLRGFCDQVYAVRMIGEQNALD | – | – | – | – | no binding

From publication PMC5821942, “Crystal structure of IspF from Bacillus subtilis and absence of protein complex assembly amongst IspD/IspE/IspF enzymes in the MEP pathway” (Bioscience Reports, 2018)
